These are yes or no findings as the source states them, for the method shown.
Columns and labels:
[1] = target: C. elegans SPO-11 (C. elegans) (UniProt Q22236); assay: SEC; Superdex 75 10/300 GL, T buffer supplemented with 300 mM KCl, calibrated with size standards; both purified
[2] = target: C. elegans SPO-11 (C. elegans) (UniProt Q22236); assay: AUC; sedimentation velocity, SPO-11 9.2 μM, T buffer supplemented with 300 mM KCl, 4 °C, 50,000 rpm, Sedfit; both purified
[3] = target: C. elegans SPO-11 (C. elegans) (UniProt Q22236); assay: AUC; sedimentation equilibrium, SPO-11 7.6 μM and 15.7 μM, T buffer supplemented with 300 mM KCl, 4 °C, 11,000, 13,200 and 23,000 rpm, single ideal species model; both purified

B1: C. elegans SPO-11 (protein, UniProt Q22236 1-425)
chain: MYEYSFNPNIDHEPGSVESQQSTIYSDSDDSDDSFLDDEVIPPKEQAMRKIEFALADIKRQMDNKEKSLTLRISTSKSHFCLRYTAKRKGKLDRDLHCLHQVYDLLENDKRSTKRELYYEHKAVYGNQKYLDSSIKSICELLNESRANLNILSCGRGIIRGAITFLVENVGVIDARVQEVLITDALLFSNIISEADFILVVEKDTTFQKLMDENFQAMFPRGILATSKGYPDIATRNVLKMLSEKRKFPIYGLFDADPHGIEIYLTYKYGPTKEFAEGRGAFVPTIEWIGLFPTDFHRFTIDQSQCLPLVRTDFVKIEKMIPRSIQLGEIVVTRELDWMIQNKFKMELESINMCGQEYMARFLIAPRVMSIEKEIPIQPETIINEYHEDSQCSLSTDDDREAKDDDYIDSDAEEKFQNMIDNDSD
With B1 the binding [1] was “no binding”, the binding [2] was “no binding (tested: 9.2 μM)” and the binding [3] was “no binding (tested: 15.7 μM)”.
